{"source": "patent US11013677B2", "about": "“Methods and compositions to reduce staining for antibacterial oral care compositions” (Colgate-Palmolive Company, priority 2019, dated 2021)", "origin": "cited, not measured here", "conditions": "cited from earlier work", "note": "At least one structure is not confirmed: it was looked up by name or label, or the drawing left a doubt.", "data": [{"smiles": "O=C(O)CC(NC(CC(=O)O)C(=O)O)C(=O)O", "note": "(stereo not shown) [Imminodisuccinic acid]", "values": [{"measurement": "Fe^3+ binding constant (logK)", "value": 15.2}]}]}
